Assay results as given in the supplement of paper PMC12823440, “Inhibitors supercharge kinase turnover through native proteolytic circuits” (Nature, 2025).
Where a name gives a salt, the structure may show the parent alone. Some of the results follow. The calls rarely recur for the same compound in another form.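 Kinases, fused to nanoluciferase, were expressed in K562 cells; luminescence was measured every 4 h from 2 to 18 h as percent of control (DMSO = 100%, positive control = 0%). A time point is decreased if signal falls significantly (2 sigma). Hits were called by the authors by a rule that is not shown; the count of time points alone does not decide it.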

By UniProt entry, the sequences of proteins in these tests, tags left out. Where a name states a change or a piece, a line headed by the entry shows the natural chain unless it says otherwise.
UniProt P48729: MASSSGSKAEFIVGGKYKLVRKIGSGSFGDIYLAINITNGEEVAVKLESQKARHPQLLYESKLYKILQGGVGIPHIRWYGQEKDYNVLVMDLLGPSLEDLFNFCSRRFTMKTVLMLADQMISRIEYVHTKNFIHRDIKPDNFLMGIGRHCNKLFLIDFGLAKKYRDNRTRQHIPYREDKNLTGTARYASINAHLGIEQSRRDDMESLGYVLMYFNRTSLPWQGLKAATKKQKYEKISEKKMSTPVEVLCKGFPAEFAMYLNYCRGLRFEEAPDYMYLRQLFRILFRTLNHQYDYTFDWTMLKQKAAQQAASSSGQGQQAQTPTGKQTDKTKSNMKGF
UniProt P48730: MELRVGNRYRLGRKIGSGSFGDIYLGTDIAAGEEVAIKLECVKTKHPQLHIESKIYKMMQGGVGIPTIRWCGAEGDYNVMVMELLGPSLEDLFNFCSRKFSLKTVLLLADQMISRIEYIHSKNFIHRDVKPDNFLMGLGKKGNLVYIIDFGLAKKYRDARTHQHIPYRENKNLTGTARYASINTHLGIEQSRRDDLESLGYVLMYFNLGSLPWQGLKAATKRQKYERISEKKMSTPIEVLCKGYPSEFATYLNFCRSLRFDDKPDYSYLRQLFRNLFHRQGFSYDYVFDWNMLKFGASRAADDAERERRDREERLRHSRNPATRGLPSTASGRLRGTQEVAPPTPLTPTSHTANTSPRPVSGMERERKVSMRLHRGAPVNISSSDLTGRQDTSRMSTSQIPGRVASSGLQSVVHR
UniProt Q08345: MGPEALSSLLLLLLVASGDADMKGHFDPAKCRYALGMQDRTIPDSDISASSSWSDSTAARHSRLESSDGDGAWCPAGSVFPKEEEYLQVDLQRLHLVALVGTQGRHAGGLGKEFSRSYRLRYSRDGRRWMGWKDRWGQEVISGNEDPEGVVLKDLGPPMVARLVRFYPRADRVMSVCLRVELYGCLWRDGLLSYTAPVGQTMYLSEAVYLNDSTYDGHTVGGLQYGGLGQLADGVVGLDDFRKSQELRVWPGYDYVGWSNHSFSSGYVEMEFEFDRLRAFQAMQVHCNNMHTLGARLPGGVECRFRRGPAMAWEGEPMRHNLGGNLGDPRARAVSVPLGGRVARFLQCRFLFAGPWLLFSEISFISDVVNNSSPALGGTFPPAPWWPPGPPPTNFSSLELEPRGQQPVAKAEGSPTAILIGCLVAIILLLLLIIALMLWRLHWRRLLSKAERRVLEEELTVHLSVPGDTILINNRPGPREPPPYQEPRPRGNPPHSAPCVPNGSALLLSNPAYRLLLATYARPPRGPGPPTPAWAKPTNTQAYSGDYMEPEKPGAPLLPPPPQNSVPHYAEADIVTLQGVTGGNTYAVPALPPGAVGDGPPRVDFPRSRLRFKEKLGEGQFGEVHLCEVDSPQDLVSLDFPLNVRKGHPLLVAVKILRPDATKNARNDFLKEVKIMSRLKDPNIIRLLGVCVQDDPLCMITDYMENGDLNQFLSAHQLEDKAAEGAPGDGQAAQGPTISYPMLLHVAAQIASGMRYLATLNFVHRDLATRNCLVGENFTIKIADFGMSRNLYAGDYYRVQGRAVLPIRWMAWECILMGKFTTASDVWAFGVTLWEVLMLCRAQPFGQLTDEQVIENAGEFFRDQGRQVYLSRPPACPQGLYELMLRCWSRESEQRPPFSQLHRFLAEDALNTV
UniProt Q9Y463, whole entry, looked up: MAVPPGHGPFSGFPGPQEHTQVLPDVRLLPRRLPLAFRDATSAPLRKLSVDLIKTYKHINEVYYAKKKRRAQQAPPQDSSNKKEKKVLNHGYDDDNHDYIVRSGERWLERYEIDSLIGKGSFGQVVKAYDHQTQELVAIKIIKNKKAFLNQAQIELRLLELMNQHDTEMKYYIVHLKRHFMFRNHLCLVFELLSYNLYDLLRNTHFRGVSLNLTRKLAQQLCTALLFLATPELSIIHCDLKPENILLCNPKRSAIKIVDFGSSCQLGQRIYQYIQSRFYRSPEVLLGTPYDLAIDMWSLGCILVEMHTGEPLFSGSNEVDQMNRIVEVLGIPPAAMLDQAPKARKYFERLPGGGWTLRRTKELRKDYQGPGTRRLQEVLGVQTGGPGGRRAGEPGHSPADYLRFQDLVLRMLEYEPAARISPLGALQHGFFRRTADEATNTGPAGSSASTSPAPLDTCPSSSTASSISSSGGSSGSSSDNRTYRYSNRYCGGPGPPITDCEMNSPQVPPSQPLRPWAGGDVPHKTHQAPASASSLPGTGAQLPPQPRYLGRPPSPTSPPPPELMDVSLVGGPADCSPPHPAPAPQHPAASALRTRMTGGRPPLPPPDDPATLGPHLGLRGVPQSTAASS
UniProt Q92630: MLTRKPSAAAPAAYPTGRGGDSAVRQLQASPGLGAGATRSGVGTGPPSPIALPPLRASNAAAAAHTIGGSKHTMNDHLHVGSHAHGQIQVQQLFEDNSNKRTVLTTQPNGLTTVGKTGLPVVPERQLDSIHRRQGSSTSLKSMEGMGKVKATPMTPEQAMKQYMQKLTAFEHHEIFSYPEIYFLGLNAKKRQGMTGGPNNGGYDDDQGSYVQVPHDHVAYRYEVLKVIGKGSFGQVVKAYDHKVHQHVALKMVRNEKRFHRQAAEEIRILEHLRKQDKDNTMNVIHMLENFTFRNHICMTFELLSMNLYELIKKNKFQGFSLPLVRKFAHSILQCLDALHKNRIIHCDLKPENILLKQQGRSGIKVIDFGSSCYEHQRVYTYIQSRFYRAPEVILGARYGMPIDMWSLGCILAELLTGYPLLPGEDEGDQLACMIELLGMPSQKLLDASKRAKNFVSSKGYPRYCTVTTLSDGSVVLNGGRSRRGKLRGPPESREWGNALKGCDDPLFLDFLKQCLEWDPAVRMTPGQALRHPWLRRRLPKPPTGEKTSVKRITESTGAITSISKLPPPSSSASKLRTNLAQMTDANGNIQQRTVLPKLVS

What was measured:
Test in all cases: number of time points (of 5) at which kinase-Nluc abundance scored as decreased, DMSO-normalised (count); higher = more persistent destabilization
Conditions in all cases: K562; 2-18 h
[1] = target: CSNK1A1 (UniProt P48729)
[2] = target: CSNK1D (UniProt P48730)
[3] = target: DDR1 (UniProt Q08345)
[4] = target: DYRK1B (UniProt Q9Y463)
[5] = target: DYRK2 (UniProt Q92630)
[6] = target: EGFR (UniProt P00533)
[7] = target: EGFR_G719S (UniProt P00533)
[8] = target: EGFR_G719S_T790M (UniProt P00533)
[9] = target: EGFR_L718V (UniProt P00533)
[10] = target: EGFR_L858R (UniProt P00533)

Measured: number of time points

CCN1/C(=C/C(C)=O)Sc2ccc(OC)cc21 (10 µM)
0: [1] | [2] | [3] | [4] | [6] | [7]
2: [5]
1: [8] | [9] | [10]

C[C@@H]1CCc2ncc(F)cc2[C@H]2CCCN2c2ccn3ncc(c3n2)C(=O)N1 [Selitrectinib] (10 µM)
0: [1] | [2] | [3] | [4] | [5] | [6] | [7] | [8] | [9] | [10]

CN(CC(=O)N(Cc1ccc(C2CCCCC2)cc1)c1ccc(C(=O)O)c(O)c1)S(=O)(=O)c1c(F)c(F)c(F)c(F)c1F (2.5 µM)
0: [1] | [2] | [3] | [4] | [5] | [6] | [7] | [8] | [9] | [10]

COC(=O)[C@@]1(C)CC[C@]2(C(=O)O)CC[C@]3(C)C(=CC[C@@H]4[C@@]5(C)C[C@H](O)[C@H](O[C@@H]6OC[C@@H](O[C@@H]7O[C@H](CO)[C@@H](O)[C@H](O)[C@H]7O)[C@H](O)[C@H]6O)[C@@](C)(CO)[C@@H]5CC[C@]43C)[C@@H]2C1 [Esculentoside A] (10 µM)
0: [1] | [2] | [3] | [4] | [5] | [6] | [7] | [8] | [9] | [10]

CC(=O)Nc1nc(C)c(-c2nc(N3CCCC(O)C3)no2)s1 (stereo not given) (10 µM)
0: [1] | [2] | [3] | [4] | [5] | [6] | [7] | [8] | [9] | [10]

NS(=O)(=O)c1ccc(N2N=C(c3ccccc3)CC2c2ccccc2)cc1 (stereo not given) (10 µM)
0: [1] | [2] | [3] | [4] | [5] | [6] | [7] | [8] | [9] | [10]

N=C(N)NC(=N)NCCc1ccccc1 [Phenformin (hydrochloride)] (10 µM)
0: [1] | [2] | [3] | [4] | [5] | [6] | [7] | [8] | [9] | [10]

CC1=C(CC(=O)O)c2cc(F)ccc2/C1=C\c1ccc(C(C)C)cc1 (10 µM)
0: [1] | [2] | [3] | [5] | [6] | [7] | [8] | [9] | [10]
5: [4]

C=C(F)C(=O)N1CCN(c2nc(OC[C@@H]3CCCN3C)nc3c2CCN(c2cccc4cccc(Cl)c24)C3)C[C@@H]1CC#N (2.5 µM)
0: [1] | [2] | [3] | [4] | [5] | [6] | [7] | [8] | [9] | [10]

CN1CC[C@H](c2c(O)cc(O)c3c(=O)cc(-c4ccc(C(F)(F)F)cc4Cl)oc23)[C@H]1CO [(2S,3R)-Voruciclib (hydrochloride)] (2.5 µM)
0: [1] | [2] | [3] | [4] | [6] | [7] | [9] | [10]
2: [5] | [8]

CC(C)(C)c1cc(C(c2cc3c(cc2O)OCO3)N2CCOCC2)cc(C(C)(C)C)c1O (stereo not given) (2.5 µM)
0: [1] | [2] | [3] | [4] | [5] | [6] | [7] | [8] | [9] | [10]

COc1cnccc1Nc1nc(-c2nn(Cc3c(F)cc(OCCO)cc3F)c3ccccc23)ncc1OC (10 µM)
0: [1] | [2] | [3] | [4] | [5] | [6] | [7] | [8] | [9] | [10]

Nc1n[nH]c2cc(-c3ccc(=O)n(Cc4cccc(Cl)c4)c3)ccc12 (10 µM)
0: [1] | [2] | [3] | [4] | [5] | [6] | [7] | [8] | [9] | [10]

Cc1cc(Nc2nc(N[C@@H](C)c3ncc(F)cn3)ncc2Cl)[nH]n1 (10 µM)
0: [1] | [2] | [3] | [4] | [5] | [6] | [7] | [8] | [9] | [10]

C[C@H]1Cc2ccccc2N1C(=O)Cc1nc(N2CCOCC2)cc(=O)[nH]1 (2.5 µM)
0: [1] | [2] | [3] | [4] | [5] | [6] | [7] | [8] | [9] | [10]

Cc1ccc(-c2ncn(-c3ccc(Nc4nccc(-c5cccc(N6CCOCC6)c5)n4)cc3)n2)cn1 (10 µM)
0: [1] | [2] | [3] | [4] | [5] | [6] | [7] | [8] | [9] | [10]

CC[C@H](C)[C@H](NC(=O)[C@H](CCC(=O)O)NC(=O)[C@H](CCCN=C(N)N)NC(=O)[C@H](CCCN=C(N)N)NC(=O)[C@@H](N)CCCCN)C(=O)N[C@@H](CC(C)C)C(=O)N[C@@H](CO)C(=O)N[C@@H](CCCN=C(N)N)C(=O)N[C@@H](CCCN=C(N)N)C(=O)N1CCC[C@H]1C(=O)N[C@@H](CO)C(=O)N[C@@H](Cc1ccc(O)cc1)C(=O)N[C@@H](CCCN=C(N)N)C(=O)O [CREBtide] (10 µM)
0: [1] | [2] | [3] | [4] | [5] | [6] | [7] | [8] | [9] | [10]

CC(CCc1ccccn1)(CCc1ccccn1)C(=O)c1ccccc1 (10 µM)
0: [1] | [2] | [3] | [4] | [5] | [6] | [7] | [8] | [9] | [10]

COc1c(C)c(C(=O)c2ccc(N)c(C(=O)O)c2)n2ccccc12 (10 µM)
0: [1] | [2] | [3] | [4] | [5] | [6] | [7] | [8] | [9] | [10]

COC(=O)N[C@@H](C)CNc1nccc(-c2cn(C(C)C)nc2-c2cc(Cl)cc(NS(C)(=O)=O)c2F)n1 [Encorafenib] (10 µM)
0: [1] | [2] | [3] | [4] | [5] | [6] | [7] | [8] | [9] | [10]

CCc1c(C)sc(NC(=S)NC(=O)c2ccc(Cl)cc2)c1C(N)=O (10 µM)
0: [1] | [2] | [3] | [4] | [5] | [6] | [7] | [8] | [9] | [10]

O=S(=O)(c1cccc2cnccc12)N1CCNCC1 (10 µM)
0: [1] | [2] | [3] | [4] | [5] | [6] | [7] | [8] | [9] | [10]

O=C(O)c1ccc(-c2c[nH]c3ncc(-c4ccccc4)cc23)cc1C1CCCC1 (2.5 µM)
0: [1] | [2] | [3] | [4] | [5] | [6] | [7] | [8] | [9] | [10]

O=C(O)c1ccccc1Nc1cccc(C(F)(F)F)c1 [Flufenamic acid] (10 µM)
0: [1] | [2] | [3] | [4] | [5] | [6] | [7] | [8] | [9] | [10]

COc1cc(C(=O)N2CCC(N3CCN(C)CC3)CC2)ccc1Nc1ncc2c(n1)N(C)c1ccccc1C(=O)N2C (10 µM)
0: [1] | [2] | [3] | [4] | [5] | [6] | [7] | [8] | [9] | [10]

CC(C)c1cc(/C=C(\C#N)C(N)=O)cc(C(C)C)c1O (10 µM)
0: [1] | [2] | [3] | [4] | [5] | [6] | [7] | [8] | [9] | [10]

Cc1cccc(-c2[nH]ncc2-c2ccc3ncccc3n2)n1 (10 µM)
0: [1] | [2] | [3] | [4] | [5] | [6] | [7] | [8] | [9] | [10]

C=CC(=O)Nc1cccc(-n2c(=O)cc(C)c3cnc(Nc4ccc(OCCN(C)C)cc4OC)nc32)c1 (10 µM)
0: [1] | [2] | [3] | [4] | [5] | [6] | [7] | [8] | [9] | [10]

O=c1ccc2ccc(O)c(O)c2o1 [Daphnetin] (10 µM)
0: [1] | [2] | [3] | [4] | [5] | [6] | [7] | [8] | [9] | [10]

Eight entries out of the list, sorted by SMILES length, rising:
CCN1/C(=C/C(C)=O)Sc2ccc(OC)cc21 (10 µM)
0: [1] | [2] | [3] | [4] | [6] | [7]
2: [5]
1: [8] | [9] | [10]

Cc1cccc(-c2[nH]ncc2-c2ccc3ncccc3n2)n1 (10 µM)
0: [1] | [2] | [3] | [4] | [5] | [6] | [7] | [8] | [9] | [10]

CC(CCc1ccccn1)(CCc1ccccn1)C(=O)c1ccccc1 (10 µM)
0: [1] | [2] | [3] | [4] | [5] | [6] | [7] | [8] | [9] | [10]

CCc1c(C)sc(NC(=S)NC(=O)c2ccc(Cl)cc2)c1C(N)=O (10 µM)
0: [1] | [2] | [3] | [4] | [5] | [6] | [7] | [8] | [9] | [10]

O=C(O)c1ccc(-c2c[nH]c3ncc(-c4ccccc4)cc23)cc1C1CCCC1 (2.5 µM)
0: [1] | [2] | [3] | [4] | [5] | [6] | [7] | [8] | [9] | [10]

C[C@@H]1CCc2ncc(F)cc2[C@H]2CCCN2c2ccn3ncc(c3n2)C(=O)N1 [Selitrectinib] (10 µM)
0: [1] | [2] | [3] | [4] | [5] | [6] | [7] | [8] | [9] | [10]

C=CC(=O)Nc1cccc(-n2c(=O)cc(C)c3cnc(Nc4ccc(OCCN(C)C)cc4OC)nc32)c1 (10 µM)
0: [1] | [2] | [3] | [4] | [5] | [6] | [7] | [8] | [9] | [10]

COC(=O)N[C@@H](C)CNc1nccc(-c2cn(C(C)C)nc2-c2cc(Cl)cc(NS(C)(=O)=O)c2F)n1 [Encorafenib] (10 µM)
0: [1] | [2] | [3] | [4] | [5] | [6] | [7] | [8] | [9] | [10]

Next part.

O=C1NCCCc2c1oc1ccc(O)cc21 (10 µM)
0: [1] | [2] | [3] | [4] | [5] | [6] | [7] | [8] | [9] | [10]

CCOc1c([C@H](C)n2nc(C)c3c(N)ncnc32)cc(Cl)c(F)c1[C@@H]1CNC(=O)C1 [Parsaclisib (hydrochloride)] (10 µM)
0: [1] | [2] | [3] | [4] | [5] | [6] | [7] | [8] | [9] | [10]

COc1ccc(CN2C3CC2CN(c2ccc(-c4cc(OCC(C)(C)O)cn5ncc(C#N)c45)cn2)C3)cn1 [Selpercatinib] (10 µM)
0: [1] | [2] | [3] | [4] | [5] | [6] | [7] | [8] | [9] | [10]

CN1CCN(CCCNc2ncc(Cl)c(-c3cc4c(C(=O)NC5CC5)cccc4s3)n2)CC1 (10 µM)
0: [1] | [2] | [3] | [4] | [5] | [6] | [7] | [8] | [9] | [10]

Cn1cc(-c2cc3c(N4CCN(c5ncc([C@@](C)(N)c6ccc(F)cc6)cn5)CC4)ncnn3c2)cn1 [Avapritinib] (2.5 µM)
0: [1] | [2] | [3] | [4] | [5] | [6] | [7] | [8] | [9] | [10]

O=C1NC(=O)C(=Cc2ccc3c(c2)OCO3)S1 (10 µM)
0: [1] | [2] | [3] | [4] | [5] | [6] | [7] | [8] | [9] | [10]

C=CC(=O)Nc1cccc(Oc2nc(Nc3ccc(N4CCN(C)CC4)cc3)nc3ccoc23)c1 [Poseltinib] (10 µM)
0: [1] | [2] | [3] | [4] | [5] | [6] | [7] | [8] | [9] | [10]
